Measurements taken from patent publication US9588106B2, “Methods and compositions for measuring cell permeability” (The University of Chicago, priority 2012, dated 2017).
At least one structure is not confirmed: it was looked up by name or label, or the drawing left a doubt.

System: HPAEC monolayer
Assay: XPerT permeability visualization on biotinylated gelatin coated coverslips (FITC-avidin, VE-cadherin staining)
Assay type: cell-based, human
Conditions: thrombin 0.2 or 0.3 U/ml 15 min; forskolin 2 μM 30 min; 10× objective; FIG. 4A
Protocol: Human pulmonary artery endothelial cells (HPAEC) were obtained from Lonza (Allendale, N.J.) and cultured in cell growth medium (EGM-2, Lonza) containing 10% fetal bovine serum (FBS). Cell cultures were maintained at 37° C. in a humidified 5% CO2 incubator and used for experiments at passages 5-8. In experiments with agonist stimulation, 10% FBS growth medium was replaced with 2% FBS growth medium for 2 hours prior to experiment. Measurements of transendothelial electrical resistance across a confluent endothelial cell monolayer were performed using the electrical cell-substrate impedance sensing system ECIS-1600 (Applied Biophysics, Troy, N.Y.). Transient transfections with cMyc-tagged RhoA-V14 or Rho kinase-CAT (6-553) were performed using PolyJet transfection reagent (SignaGen, Rockville, Md.) according to the manufacturer's protocol. In brief, HPAEC were seeded on 35 mm diameter cell culture dishes with biotinylated gelatin-treated coverslips at a density of 5×10^5 cells per dish. After 24 hours cells were transfected with 1 μg of plasmid DNA per dish (ratio: 1 μg of DNA per 3 μl of PolyJet). Permeability visualization experiments were performed 24 hours after transfection.
Permeability visualization experiments were performed on 18×18 mm square Rinzle plastic coverslips. The coverslips, placed in 35 mm culture dishes, were coated with biotinylated gelatin as described above. […]

With `C=C[C@@]1(C)CC(=O)[C@]2(O)[C@@]3(C)[C@@H](O)CCC(C)(C)[C@@H]3[C@H](O)[C@H](OC(C)=O)[C@@]2(C)O1` [forskolin] the “FITC fluorescence at cell-cell junction areas, low magnification images” value was “further barrier preservation”.
